Results reported in paper doi:10.1101/2022.03.04.482790.
These are yes or no findings as the source states them, for the method shown. Some results given as binding are weak or reduced against the parent protein; the word gives no strength.

Amino acid sequences for entries named in this document (tags omitted).
UniProt A8DY81: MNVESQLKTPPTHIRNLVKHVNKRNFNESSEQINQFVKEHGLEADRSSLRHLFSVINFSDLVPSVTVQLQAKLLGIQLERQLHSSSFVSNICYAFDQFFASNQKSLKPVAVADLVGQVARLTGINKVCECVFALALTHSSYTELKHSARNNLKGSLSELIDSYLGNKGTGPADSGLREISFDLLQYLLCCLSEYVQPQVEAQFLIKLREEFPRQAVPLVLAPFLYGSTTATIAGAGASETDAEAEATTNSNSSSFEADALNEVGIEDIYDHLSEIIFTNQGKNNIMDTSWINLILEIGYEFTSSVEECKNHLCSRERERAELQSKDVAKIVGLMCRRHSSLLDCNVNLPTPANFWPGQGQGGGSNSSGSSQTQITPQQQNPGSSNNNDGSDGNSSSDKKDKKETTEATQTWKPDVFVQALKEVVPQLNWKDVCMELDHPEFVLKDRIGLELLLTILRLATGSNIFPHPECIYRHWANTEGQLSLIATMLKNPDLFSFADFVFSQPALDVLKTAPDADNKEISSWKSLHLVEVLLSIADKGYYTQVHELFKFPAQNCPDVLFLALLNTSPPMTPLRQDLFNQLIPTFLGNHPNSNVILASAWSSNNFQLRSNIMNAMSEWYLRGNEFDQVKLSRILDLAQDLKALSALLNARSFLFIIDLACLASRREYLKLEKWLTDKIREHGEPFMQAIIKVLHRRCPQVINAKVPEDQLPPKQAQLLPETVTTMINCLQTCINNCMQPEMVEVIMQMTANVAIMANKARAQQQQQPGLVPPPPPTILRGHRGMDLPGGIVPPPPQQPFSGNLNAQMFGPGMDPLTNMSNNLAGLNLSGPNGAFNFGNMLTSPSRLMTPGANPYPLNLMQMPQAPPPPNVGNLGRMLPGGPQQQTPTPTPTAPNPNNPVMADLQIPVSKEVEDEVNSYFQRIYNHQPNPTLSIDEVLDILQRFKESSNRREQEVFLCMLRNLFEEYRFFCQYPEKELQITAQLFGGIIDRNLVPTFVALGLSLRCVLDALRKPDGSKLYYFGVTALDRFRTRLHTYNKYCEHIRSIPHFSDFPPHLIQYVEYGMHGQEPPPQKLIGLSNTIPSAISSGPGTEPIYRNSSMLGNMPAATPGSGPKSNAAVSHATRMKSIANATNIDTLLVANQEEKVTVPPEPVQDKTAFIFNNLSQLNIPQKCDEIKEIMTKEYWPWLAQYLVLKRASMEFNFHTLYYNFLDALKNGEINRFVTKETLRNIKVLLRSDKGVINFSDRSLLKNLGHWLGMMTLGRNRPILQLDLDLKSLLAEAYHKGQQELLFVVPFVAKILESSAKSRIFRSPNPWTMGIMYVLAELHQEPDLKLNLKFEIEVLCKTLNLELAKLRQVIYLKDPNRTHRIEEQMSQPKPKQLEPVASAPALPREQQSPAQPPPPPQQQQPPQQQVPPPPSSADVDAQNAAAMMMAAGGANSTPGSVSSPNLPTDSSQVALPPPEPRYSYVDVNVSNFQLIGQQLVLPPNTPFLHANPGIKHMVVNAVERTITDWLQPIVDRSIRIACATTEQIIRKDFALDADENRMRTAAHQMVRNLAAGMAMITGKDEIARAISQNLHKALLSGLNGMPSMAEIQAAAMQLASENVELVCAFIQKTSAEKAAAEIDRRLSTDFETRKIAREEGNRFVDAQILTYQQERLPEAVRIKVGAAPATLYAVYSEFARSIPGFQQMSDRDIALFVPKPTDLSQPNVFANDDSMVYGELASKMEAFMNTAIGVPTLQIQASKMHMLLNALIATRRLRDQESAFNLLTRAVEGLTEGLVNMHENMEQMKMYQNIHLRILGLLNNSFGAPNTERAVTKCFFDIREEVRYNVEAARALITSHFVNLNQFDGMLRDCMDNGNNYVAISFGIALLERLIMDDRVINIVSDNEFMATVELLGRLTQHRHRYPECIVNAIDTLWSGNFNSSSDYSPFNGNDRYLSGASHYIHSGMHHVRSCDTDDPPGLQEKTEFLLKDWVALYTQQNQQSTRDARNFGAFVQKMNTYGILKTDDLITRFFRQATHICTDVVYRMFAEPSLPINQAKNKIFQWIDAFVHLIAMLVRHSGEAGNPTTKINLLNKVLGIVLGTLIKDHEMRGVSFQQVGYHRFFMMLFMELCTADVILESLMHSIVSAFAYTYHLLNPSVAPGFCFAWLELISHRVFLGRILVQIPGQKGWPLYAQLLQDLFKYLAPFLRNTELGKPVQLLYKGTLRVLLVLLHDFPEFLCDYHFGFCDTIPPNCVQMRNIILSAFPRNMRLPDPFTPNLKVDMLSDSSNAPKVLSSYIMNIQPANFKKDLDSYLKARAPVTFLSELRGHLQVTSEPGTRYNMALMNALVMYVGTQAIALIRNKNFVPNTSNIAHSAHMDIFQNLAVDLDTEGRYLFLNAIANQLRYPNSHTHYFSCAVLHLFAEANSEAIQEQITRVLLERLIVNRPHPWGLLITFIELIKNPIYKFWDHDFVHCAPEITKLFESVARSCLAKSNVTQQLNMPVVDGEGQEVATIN

Columns and labels:
Assay in all cases: ReLo
[1] = target: NOT1 (subunit of the Drosophila CCR4-NOT core complex) (Drosophila) (UniProt A8DY81)
[2] = target: T1, Drosophila Cup (Drosophila) (UniProt Q9VMA3)
T1 sequence: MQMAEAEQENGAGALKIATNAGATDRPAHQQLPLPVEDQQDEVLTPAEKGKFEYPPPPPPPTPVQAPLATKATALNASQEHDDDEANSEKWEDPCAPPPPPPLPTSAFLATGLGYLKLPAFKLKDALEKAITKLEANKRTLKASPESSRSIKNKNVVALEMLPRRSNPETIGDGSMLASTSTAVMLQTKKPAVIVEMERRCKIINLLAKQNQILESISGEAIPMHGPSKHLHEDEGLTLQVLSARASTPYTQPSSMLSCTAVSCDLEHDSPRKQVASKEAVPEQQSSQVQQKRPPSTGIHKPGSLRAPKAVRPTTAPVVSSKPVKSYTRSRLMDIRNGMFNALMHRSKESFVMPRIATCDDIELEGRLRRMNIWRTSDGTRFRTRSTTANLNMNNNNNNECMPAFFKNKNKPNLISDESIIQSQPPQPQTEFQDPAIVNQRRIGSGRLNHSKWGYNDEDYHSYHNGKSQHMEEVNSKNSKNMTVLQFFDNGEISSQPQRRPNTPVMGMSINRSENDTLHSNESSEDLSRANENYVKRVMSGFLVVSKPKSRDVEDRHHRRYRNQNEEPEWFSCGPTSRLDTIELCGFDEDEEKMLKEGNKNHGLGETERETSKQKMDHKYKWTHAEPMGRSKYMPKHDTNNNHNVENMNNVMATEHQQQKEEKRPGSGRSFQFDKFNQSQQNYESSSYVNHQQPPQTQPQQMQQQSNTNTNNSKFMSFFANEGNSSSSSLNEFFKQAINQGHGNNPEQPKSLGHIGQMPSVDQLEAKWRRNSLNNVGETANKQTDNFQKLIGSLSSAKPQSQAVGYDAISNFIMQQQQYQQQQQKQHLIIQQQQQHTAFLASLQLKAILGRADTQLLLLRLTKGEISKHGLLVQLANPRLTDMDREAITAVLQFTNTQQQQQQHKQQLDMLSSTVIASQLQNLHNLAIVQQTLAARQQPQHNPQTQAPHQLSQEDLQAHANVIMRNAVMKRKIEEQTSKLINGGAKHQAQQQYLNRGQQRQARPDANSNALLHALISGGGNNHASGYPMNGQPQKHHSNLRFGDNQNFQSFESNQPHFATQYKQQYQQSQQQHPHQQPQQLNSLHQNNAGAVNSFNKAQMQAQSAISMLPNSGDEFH

[3] = target: T2, NOT2 (subunit of the Drosophila CCR4-NOT core complex) (Drosophila) (UniProt Q94547)
T2 sequence: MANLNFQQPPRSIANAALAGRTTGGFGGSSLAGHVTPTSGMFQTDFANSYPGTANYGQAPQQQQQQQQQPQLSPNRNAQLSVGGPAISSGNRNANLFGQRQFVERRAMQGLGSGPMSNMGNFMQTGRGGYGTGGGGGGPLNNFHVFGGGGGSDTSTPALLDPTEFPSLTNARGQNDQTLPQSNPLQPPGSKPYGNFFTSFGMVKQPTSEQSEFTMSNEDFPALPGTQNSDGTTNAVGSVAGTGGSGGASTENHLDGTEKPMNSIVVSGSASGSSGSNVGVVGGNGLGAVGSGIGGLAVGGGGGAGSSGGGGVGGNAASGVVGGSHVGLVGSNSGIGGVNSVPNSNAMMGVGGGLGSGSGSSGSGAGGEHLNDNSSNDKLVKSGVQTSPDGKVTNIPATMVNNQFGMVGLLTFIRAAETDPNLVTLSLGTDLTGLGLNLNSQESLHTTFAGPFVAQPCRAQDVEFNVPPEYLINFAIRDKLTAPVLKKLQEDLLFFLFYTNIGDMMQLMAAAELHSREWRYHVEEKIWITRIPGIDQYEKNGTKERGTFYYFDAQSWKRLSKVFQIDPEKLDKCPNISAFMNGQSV

B1: NOT2 (subunit of the Drosophila CCR4-NOT core complex) (protein, UniProt Q94547 1-585)
chain: MANLNFQQPPRSIANAALAGRTTGGFGGSSLAGHVTPTSGMFQTDFANSYPGTANYGQAPQQQQQQQQQPQLSPNRNAQLSVGGPAISSGNRNANLFGQRQFVERRAMQGLGSGPMSNMGNFMQTGRGGYGTGGGGGGPLNNFHVFGGGGGSDTSTPALLDPTEFPSLTNARGQNDQTLPQSNPLQPPGSKPYGNFFTSFGMVKQPTSEQSEFTMSNEDFPALPGTQNSDGTTNAVGSVAGTGGSGGASTENHLDGTEKPMNSIVVSGSASGSSGSNVGVVGGNGLGAVGSGIGGLAVGGGGGAGSSGGGGVGGNAASGVVGGSHVGLVGSNSGIGGVNSVPNSNAMMGVGGGLGSGSGSSGSGAGGEHLNDNSSNDKLVKSGVQTSPDGKVTNIPATMVNNQFGMVGLLTFIRAAETDPNLVTLSLGTDLTGLGLNLNSQESLHTTFAGPFVAQPCRAQDVEFNVPPEYLINFAIRDKLTAPVLKKLQEDLLFFLFYTNIGDMMQLMAAAELHSREWRYHVEEKIWITRIPGIDQYEKNGTKERGTFYYFDAQSWKRLSKVFQIDPEKLDKCPNISAFMNGQSV
[1]
  binding: binds

B2: Drosophila Nanos (protein, UniProt P25724 1-401)
chain: MFRSNLEGSGAAAVGVANPPSLAQSGKIFQLQDNFSAFHARGGLNILGLQDMYLDTSGANSSATLSPPITPVTPDPSTSAQSTHFPFLADSAATANSLLMQRQYHYHLLLQQQQQLAMAQHQLALAASAAAASASHQQTDEIARSLKIFAQVTTGAAENAAGSMQDVMQEFATNGYASDDLGRMSYGSAPPQVQMPPQQQHQQQQGLHLPLGRNPAQLQTNGGNLMPIPLATHWLNNYREHLNNVWRNMSYIPAAPNTMGLQAQTAATVSTNLGVGMGLGLPVQGEQLRGASNSSNNNNNNNKVYKRYNSKAKEISRHCVFCENNNEPEAVINSHSVRDNFNRVLCPKLRTYVCPICGASGDSAHTIKYCPKKPIITMEDAIKAESFRLAKSSYYKQQMKV
[2]
  binding: binds
[1]
  binding: binds
[3]
  binding: no binding

B3: eukaryotic translation initiation factor 4E (eIF4E) (protein, UniProt P48598 1-259)
chain: MQSDFHRMKNFANPKSMFKTSAPSTEQGRPEPPTSAAAPAEAKDVKPKEDPQETGEPAGNTATTTAPAGDDAVRTEHLYKHPLMNVWTLWYLENDRSKSWEDMQNEITSFDTVEDFWSLYNHIKPPSEIKLGSDYSLFKKNIRPMWEDAANKQGGRWVITLNKSSKTDLDNLWLDVLLCLIGEAFDHSDQICGAVINIRGKSNKISIWTADGNNEEAALEIGHKLRDALRLGRNNSLQYQLHKDTMVKQGSNVKSIYTL
[2]
  binding: binds

B4: DEAD-box RNA helicase Me31B (protein, UniProt P23128 1-459)
chain: MMTEKLNSGHTNLTSKGIINDLQIAGNTSDDMGWKSKLKLPPKDNRFKTTDVTDTRGNEFEEFCLKRELLMGIFEKGWERPSPIQEAAIPIALSGKDVLARAKNGTGKTGAYCIPVLEQIDPTKDYIQALVMVPTRELALQTSQICIELAKHLDIRVMVTTGGTILKDDILRIYQKVQLIIATPGRILDLMDKKVADMSHCRILVLDEADKLLSLDFQGMLDHVILKLPKDPQILLFSATFPLTVKNFMEKHLREPYEINLMEELTLKGVTQYYAFVQERQKVHCLNTLFSKLQINQSIIFCNSTQRVELLAKKITELGYCCYYIHAKMAQAHRNRVFHDFRQGLCRNLVCSDLFTRGIDVQAVNVVINFDFPRMAETYLHRIGRSGRFGHLGIAINLITYEDRFDLHRIEKELGTEIKPIPKVIDPALYVANVGASVGDTCNNSDLNNSANEEGNVSK
[2]
  binding: binds

B5: Drosophila Bag-of-marbles (Bam) (protein, UniProt P22745 1-442)
chain: MLNARDVCPEGNDDQQLDHNFKQMEEHLALMVEGNENEDPRKATCEYEDTNEDGATCTSGVLSEIQENFGRLRLCDVTAPLLEFHGLDCLQQIQKRSRHFAFDGSPAKKSRSGGVLVTGPKQKQLQKENVWNRKSKGSASADNIEKLPITIEKLHMIGLHGDCLEHNAVLRLMNLFRSLHDHLTADLGFSRQNSMPSDYLFDMPVKSTMPKSLNVRYQLQVLCTKVERFLVQQRRTLEANRHFDFEKYDECDKLLKGFASYLDNFKLLLKPKMRNRNGNSGSNADKFHTQRMERLLIGLRDWIKAAHLSVHVFNWEMDLEHRYSGAMTESHKSLNERAILLSGAELRAAEARGISAEDLFIAQRYKLGGPIYCVLEQHEFLSALIANPETYFPPSVVAICGPQKLGAVSMEQPSASEEEFEETEEVPSSPPRHTGRVPRFRS
[1]
  binding: no binding
[3]
  binding: no binding

B6: Drosophila Cup (protein, UniProt Q9VMA3 1-1117)
chain: MQMAEAEQENGAGALKIATNAGATDRPAHQQLPLPVEDQQDEVLTPAEKGKFEYPPPPPPPTPVQAPLATKATALNASQEHDDDEANSEKWEDPCAPPPPPPLPTSAFLATGLGYLKLPAFKLKDALEKAITKLEANKRTLKASPESSRSIKNKNVVALEMLPRRSNPETIGDGSMLASTSTAVMLQTKKPAVIVEMERRCKIINLLAKQNQILESISGEAIPMHGPSKHLHEDEGLTLQVLSARASTPYTQPSSMLSCTAVSCDLEHDSPRKQVASKEAVPEQQSSQVQQKRPPSTGIHKPGSLRAPKAVRPTTAPVVSSKPVKSYTRSRLMDIRNGMFNALMHRSKESFVMPRIATCDDIELEGRLRRMNIWRTSDGTRFRTRSTTANLNMNNNNNNECMPAFFKNKNKPNLISDESIIQSQPPQPQTEFQDPAIVNQRRIGSGRLNHSKWGYNDEDYHSYHNGKSQHMEEVNSKNSKNMTVLQFFDNGEISSQPQRRPNTPVMGMSINRSENDTLHSNESSEDLSRANENYVKRVMSGFLVVSKPKSRDVEDRHHRRYRNQNEEPEWFSCGPTSRLDTIELCGFDEDEEKMLKEGNKNHGLGETERETSKQKMDHKYKWTHAEPMGRSKYMPKHDTNNNHNVENMNNVMATEHQQQKEEKRPGSGRSFQFDKFNQSQQNYESSSYVNHQQPPQTQPQQMQQQSNTNTNNSKFMSFFANEGNSSSSSLNEFFKQAINQGHGNNPEQPKSLGHIGQMPSVDQLEAKWRRNSLNNVGETANKQTDNFQKLIGSLSSAKPQSQAVGYDAISNFIMQQQQYQQQQQKQHLIIQQQQQHTAFLASLQLKAILGRADTQLLLLRLTKGEISKHGLLVQLANPRLTDMDREAITAVLQFTNTQQQQQQHKQQLDMLSSTVIASQLQNLHNLAIVQQTLAARQQPQHNPQTQAPHQLSQEDLQAHANVIMRNAVMKRKIEEQTSKLINGGAKHQAQQQYLNRGQQRQARPDANSNALLHALISGGGNNHASGYPMNGQPQKHHSNLRFGDNQNFQSFESNQPHFATQYKQQYQQSQQQHPHQQPQQLNSLHQNNAGAVNSFNKAQMQAQSAISMLPNSGDEFH
[1]
  binding: no binding
[3]
  binding: no binding
